The other results are listed elsewhere or left out.

The chains behind the UniProt entries cited, without tags or fusion partners. Where a name states a change or a piece, a line headed by the entry shows the natural chain unless it says otherwise.
UniProt Q9BTE3: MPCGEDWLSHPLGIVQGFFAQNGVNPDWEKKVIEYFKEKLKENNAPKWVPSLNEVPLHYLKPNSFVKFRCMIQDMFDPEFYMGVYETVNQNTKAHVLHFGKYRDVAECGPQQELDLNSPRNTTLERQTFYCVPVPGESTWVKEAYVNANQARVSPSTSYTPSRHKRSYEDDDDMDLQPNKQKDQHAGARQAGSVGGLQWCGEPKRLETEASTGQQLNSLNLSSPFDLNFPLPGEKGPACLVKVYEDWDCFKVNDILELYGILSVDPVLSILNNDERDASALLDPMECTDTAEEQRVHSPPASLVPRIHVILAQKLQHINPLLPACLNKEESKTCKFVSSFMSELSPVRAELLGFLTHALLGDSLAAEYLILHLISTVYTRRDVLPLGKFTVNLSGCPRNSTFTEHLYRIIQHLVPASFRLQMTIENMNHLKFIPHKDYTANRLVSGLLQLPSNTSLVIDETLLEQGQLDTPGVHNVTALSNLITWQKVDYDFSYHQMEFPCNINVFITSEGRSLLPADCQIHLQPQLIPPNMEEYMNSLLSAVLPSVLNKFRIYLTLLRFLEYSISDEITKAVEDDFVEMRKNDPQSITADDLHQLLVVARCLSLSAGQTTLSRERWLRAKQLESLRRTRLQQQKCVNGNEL
UniProt Q6UB28: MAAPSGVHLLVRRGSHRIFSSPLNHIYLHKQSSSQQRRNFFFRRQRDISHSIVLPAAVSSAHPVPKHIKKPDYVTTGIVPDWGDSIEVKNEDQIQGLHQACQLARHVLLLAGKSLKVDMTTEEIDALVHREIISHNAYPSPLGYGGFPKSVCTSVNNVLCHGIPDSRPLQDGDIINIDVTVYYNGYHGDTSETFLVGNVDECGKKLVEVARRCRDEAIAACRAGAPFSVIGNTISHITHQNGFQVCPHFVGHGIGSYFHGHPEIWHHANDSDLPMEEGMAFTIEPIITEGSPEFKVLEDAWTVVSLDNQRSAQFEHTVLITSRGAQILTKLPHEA
UniProt Q02078: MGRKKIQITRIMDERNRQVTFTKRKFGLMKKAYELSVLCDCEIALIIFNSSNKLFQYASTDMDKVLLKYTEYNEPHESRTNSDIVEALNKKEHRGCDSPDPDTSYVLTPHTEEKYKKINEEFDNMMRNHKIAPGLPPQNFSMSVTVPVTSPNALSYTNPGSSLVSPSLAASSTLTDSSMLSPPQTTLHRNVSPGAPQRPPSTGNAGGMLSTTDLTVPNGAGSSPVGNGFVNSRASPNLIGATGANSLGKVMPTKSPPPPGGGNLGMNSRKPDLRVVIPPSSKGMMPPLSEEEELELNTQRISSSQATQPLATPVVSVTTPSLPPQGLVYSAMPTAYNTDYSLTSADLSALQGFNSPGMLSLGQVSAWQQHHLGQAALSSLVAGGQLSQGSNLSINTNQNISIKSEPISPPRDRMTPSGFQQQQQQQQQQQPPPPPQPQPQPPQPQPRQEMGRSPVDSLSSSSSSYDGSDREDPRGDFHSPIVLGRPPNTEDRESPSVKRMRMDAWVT
UniProt Q14728: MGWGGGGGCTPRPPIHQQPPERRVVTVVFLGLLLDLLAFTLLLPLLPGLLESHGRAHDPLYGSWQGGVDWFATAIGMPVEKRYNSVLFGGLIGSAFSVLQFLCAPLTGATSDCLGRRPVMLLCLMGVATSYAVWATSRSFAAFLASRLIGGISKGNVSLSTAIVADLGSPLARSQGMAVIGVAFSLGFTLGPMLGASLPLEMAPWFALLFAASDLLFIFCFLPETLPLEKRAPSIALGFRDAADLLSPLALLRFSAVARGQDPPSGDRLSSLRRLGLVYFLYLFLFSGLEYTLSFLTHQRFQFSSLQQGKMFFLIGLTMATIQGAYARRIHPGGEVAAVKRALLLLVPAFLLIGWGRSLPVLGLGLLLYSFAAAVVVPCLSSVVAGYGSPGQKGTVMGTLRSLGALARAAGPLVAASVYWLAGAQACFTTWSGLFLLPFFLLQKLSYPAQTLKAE
UniProt Q07820, whole entry, looked up: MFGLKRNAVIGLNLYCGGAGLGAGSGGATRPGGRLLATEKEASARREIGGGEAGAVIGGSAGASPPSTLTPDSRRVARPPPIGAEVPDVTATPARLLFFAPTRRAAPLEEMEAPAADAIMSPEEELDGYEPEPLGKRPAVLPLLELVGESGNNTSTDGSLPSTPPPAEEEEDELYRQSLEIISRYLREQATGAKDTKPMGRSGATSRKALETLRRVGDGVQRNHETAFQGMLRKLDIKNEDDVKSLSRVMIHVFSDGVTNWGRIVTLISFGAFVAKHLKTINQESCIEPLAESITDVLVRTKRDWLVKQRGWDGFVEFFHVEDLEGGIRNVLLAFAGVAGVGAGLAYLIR
UniProt Q96IZ6: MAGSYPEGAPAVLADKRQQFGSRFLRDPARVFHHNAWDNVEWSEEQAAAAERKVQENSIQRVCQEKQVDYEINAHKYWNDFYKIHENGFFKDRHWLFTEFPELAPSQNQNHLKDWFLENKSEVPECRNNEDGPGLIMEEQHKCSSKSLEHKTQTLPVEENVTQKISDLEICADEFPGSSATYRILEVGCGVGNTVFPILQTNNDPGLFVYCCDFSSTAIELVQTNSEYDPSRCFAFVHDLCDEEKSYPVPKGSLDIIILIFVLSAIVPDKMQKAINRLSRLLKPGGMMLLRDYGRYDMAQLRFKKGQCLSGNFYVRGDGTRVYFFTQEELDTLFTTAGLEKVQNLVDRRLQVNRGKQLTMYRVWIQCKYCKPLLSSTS
UniProt O95140: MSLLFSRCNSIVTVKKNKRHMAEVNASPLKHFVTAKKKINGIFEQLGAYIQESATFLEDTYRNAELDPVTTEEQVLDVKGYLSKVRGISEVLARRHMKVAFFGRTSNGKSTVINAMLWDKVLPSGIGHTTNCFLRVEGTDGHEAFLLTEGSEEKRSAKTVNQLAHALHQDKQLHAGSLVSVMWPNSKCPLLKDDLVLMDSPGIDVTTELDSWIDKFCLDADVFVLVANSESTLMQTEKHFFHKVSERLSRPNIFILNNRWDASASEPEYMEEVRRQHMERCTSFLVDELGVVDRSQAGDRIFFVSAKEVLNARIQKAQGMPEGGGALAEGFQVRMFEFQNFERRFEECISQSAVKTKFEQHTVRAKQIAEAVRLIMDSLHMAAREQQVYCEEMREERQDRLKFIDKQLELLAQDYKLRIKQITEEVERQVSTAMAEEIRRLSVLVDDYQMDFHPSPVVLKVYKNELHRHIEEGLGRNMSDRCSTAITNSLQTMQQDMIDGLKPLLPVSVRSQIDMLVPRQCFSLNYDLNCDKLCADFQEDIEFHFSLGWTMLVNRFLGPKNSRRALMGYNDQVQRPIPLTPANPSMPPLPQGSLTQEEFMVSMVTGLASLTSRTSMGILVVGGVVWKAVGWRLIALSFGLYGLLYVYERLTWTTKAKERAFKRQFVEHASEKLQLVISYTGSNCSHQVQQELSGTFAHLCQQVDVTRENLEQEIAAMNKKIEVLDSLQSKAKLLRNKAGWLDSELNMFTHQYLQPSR
UniProt Q06413, whole entry, looked up: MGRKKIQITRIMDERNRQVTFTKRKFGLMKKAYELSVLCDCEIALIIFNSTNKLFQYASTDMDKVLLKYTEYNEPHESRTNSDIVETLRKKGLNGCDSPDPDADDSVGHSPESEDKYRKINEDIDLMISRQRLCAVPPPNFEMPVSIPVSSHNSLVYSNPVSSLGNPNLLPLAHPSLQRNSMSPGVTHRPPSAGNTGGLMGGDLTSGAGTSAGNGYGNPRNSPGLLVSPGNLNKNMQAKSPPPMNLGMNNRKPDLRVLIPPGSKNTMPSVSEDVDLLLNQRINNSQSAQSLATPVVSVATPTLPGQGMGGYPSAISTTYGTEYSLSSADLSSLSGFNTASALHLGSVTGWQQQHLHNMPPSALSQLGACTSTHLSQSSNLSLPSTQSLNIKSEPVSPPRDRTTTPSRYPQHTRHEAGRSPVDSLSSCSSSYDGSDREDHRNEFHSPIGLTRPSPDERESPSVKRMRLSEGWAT
UniProt Q9UBB5, whole entry, looked up: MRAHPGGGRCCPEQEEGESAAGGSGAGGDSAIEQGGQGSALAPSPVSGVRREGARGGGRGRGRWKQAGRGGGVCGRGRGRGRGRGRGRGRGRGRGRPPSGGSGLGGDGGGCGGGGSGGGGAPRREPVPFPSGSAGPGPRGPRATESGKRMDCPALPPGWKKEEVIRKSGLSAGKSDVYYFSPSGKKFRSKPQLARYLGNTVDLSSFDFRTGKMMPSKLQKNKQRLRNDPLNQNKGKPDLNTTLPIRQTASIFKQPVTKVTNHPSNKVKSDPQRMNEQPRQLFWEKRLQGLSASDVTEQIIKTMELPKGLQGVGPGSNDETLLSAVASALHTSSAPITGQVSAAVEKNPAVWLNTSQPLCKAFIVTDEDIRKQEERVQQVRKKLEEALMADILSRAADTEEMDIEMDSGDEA
UniProt Q8NI22: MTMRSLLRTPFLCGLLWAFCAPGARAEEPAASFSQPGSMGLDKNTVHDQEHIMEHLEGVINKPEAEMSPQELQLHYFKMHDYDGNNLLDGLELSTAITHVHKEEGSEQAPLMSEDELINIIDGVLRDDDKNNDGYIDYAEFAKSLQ
UniProt Q16798: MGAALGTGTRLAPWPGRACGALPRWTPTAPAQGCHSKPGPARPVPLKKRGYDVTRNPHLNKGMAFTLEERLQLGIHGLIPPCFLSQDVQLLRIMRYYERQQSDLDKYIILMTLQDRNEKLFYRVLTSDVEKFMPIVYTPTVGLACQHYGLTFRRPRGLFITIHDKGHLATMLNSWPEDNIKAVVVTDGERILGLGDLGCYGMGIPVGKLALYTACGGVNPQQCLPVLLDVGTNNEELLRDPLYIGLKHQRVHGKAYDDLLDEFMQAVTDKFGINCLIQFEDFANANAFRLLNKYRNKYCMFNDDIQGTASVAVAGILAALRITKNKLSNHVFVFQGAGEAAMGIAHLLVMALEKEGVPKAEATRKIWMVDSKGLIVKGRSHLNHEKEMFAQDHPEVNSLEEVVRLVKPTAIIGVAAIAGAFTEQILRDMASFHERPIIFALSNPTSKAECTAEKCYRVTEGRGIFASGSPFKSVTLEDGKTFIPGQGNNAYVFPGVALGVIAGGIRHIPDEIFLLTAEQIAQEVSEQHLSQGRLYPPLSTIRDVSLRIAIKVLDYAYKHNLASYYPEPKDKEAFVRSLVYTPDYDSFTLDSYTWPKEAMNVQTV
UniProt P51608, whole entry, looked up: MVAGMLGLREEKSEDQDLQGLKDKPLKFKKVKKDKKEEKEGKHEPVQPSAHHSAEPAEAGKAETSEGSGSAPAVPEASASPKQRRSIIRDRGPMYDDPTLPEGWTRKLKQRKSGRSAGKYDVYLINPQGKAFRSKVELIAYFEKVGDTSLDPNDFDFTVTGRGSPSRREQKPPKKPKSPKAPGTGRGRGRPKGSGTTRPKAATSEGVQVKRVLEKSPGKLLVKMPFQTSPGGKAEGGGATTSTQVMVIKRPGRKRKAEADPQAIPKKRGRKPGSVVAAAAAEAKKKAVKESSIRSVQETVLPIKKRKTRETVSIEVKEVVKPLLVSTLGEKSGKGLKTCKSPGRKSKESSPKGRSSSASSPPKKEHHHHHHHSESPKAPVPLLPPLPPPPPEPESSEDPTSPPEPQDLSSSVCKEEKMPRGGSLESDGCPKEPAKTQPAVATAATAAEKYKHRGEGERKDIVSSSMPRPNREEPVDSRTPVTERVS
UniProt P33991: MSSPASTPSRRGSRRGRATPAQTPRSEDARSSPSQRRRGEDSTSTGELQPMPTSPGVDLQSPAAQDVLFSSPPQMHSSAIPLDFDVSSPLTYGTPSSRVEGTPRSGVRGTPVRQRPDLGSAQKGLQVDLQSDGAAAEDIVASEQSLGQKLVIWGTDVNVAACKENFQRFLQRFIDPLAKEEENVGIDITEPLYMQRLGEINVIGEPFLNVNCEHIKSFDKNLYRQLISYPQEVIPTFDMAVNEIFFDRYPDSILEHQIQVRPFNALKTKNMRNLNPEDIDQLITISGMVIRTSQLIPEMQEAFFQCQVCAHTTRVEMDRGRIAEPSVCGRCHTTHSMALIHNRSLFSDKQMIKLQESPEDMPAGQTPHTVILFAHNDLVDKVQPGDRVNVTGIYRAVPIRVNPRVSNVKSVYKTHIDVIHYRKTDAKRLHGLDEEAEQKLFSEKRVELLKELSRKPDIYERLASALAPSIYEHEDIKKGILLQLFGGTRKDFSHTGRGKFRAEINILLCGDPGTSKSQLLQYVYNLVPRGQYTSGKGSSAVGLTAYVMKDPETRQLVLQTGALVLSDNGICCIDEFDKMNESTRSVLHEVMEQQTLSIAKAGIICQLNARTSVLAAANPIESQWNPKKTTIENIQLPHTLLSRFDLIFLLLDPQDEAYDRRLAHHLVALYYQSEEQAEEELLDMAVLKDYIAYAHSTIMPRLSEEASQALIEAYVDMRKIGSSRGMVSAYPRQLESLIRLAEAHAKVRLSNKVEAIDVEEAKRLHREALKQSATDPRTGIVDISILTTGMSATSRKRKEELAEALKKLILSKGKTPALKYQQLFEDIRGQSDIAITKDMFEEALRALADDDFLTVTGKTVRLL
UniProt Q96HR3: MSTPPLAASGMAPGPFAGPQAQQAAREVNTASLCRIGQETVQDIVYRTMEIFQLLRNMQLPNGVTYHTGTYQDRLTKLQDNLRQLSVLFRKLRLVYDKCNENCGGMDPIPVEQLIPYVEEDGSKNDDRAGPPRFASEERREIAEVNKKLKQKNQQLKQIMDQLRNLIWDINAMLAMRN

Here are results for 40 targets from the supplement of paper PMC10849652.

Compound in this test: Cc1cccc(CC(=O)N2CCc3c2ccc(-c2cn(C)c4ncnc(N)c24)c3F)n1
Kind of test: log2 fold change, soluble protein after heating vs DMSO (PISA); higher = thermal stabilisation; K562 lysate, 10 uM; active = over 0.2 and 3.5 SD of the protein, either way, in both replicates (recomputed). The gist of the method:
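A 30 min treatment with 10 μM compound was applied to crude K562 extract at 1 mg/mL protein in PBS pH 7.4 with 1 mM MgCl2. Heating for 3 min spanned 48°C-58°C, after which aliquots were pooled, adjusted to 0.5% NP-40 at 4°C and spun at 21,000xg for 90 min. TMTpro 16plex LC-MS/MS of the supernatant, with channel sums equalised, gave values recorded as log-two fold change in thermal stability against solvent controls, from duplicates.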
Turning to MCMBP (UniProt Q9BTE3), the log2 fold change is inactive: -0.048.

As for MED20 (UniProt Q9H944), the log2 fold change is inactive: 0.123.

Consider METTL5 (UniProt Q9NRN9), for which the log2 fold change is inactive: -0.028.

MDH2 (UniProt P40926): the log2 fold change was inactive: -0.038.

As to METTL14 (UniProt Q9HCE5), the log2 fold change was inactive: -0.049.

For MECR (UniProt Q9BV79), the log2 fold change is inactive: 0.013.

Take METAP1D (UniProt Q6UB28): the log2 fold change was inactive: 0.011.

MEF2A (UniProt Q02078): the log2 fold change is inactive: 0.068.

As to MFSD10 (UniProt Q14728), the log2 fold change was inactive: 0.073.

With MCL1 (UniProt Q07820), the log2 fold change is inactive: 0.179.

MCM6 (UniProt Q14566): the log2 fold change was inactive: 0.006.

MED7 (UniProt O43513): the log2 fold change was inactive: -0.066.

Consider MFSD4B (UniProt Q5TF39), for which the log2 fold change was inactive: 0.056.

For the target ME2 (UniProt P23368), the log2 fold change was inactive: 0.005.

Consider METTL2A (UniProt Q96IZ6), for which the log2 fold change is inactive: -0.065.

Turning to MFN2 (UniProt O95140), the log2 fold change is inactive: 0.004.

Regarding MED8 isoform 2 (UniProt Q96G25), the log2 fold change is inactive: -0.044.

As to MED4 (UniProt Q9NPJ6), the log2 fold change is inactive: 0.02.

For METTL16 (UniProt Q86W50), the log2 fold change was inactive: -0.012.

On to MEF2C isoform 5 (UniProt Q06413), for which the log2 fold change is inactive: 0.059.

As for MCUR1 (UniProt Q96AQ8), the log2 fold change was inactive: 0.01.

Regarding METAP2 (UniProt P50579), the log2 fold change was inactive: 0.01.

For the target MBD3 (UniProt O95983), the log2 fold change is inactive: 0.054.

With MBD2 (UniProt Q9UBB5), the log2 fold change is inactive: -0.032.

Turning to MED15 (UniProt Q96RN5), the log2 fold change is inactive: -0.012.

Take MCFD2 (UniProt Q8NI22): the log2 fold change was inactive: -0.076.

Consider MCM2 (UniProt P49736), for which the log2 fold change was inactive: 0.01.

Regarding MEAF6 isoform 3 (UniProt Q9HAF1), the log2 fold change is inactive: 0.039.

Consider ME3 (UniProt Q16798), for which the log2 fold change is inactive: 0.135.

MECP2 isoform 2 (UniProt P51608): the log2 fold change is inactive: 0.045.

On to MBOAT2 (UniProt Q6ZWT7), for which the log2 fold change was inactive: 0.281.

Turning to MCM4 (UniProt P33991), the log2 fold change is inactive: -0.006.

In the case of MEA1 (UniProt Q16626), the log2 fold change was inactive: -0.004.

On to MFAP1 (UniProt P55081), for which the log2 fold change is inactive: 0.014.

Consider MED30 (UniProt Q96HR3), for which the log2 fold change was inactive: 0.067.

Take METTL3 (UniProt Q86U44): the log2 fold change was inactive: -0.014.

MCRIP1 (UniProt I3L4Q0): the log2 fold change was inactive: -0.046.

In the case of MCRIP2 (UniProt Q9BUT9), the log2 fold change is inactive: 0.006.

On to MEF2D (UniProt Q14814), for which the log2 fold change was inactive: 0.016.

As for MESD (UniProt Q14696), the log2 fold change was inactive: -0.022.
